Assay: MDCKII-MDR1 permeability assay
Details: dog, MDCK-MDR1, MDCKII-MDR1 (PappA→B), reference compounds, mean over routine assay runs

Papp A→B at 2 h, 10 µM: 1.1 ± 3.5 ×10⁻⁶ cm/s
Compound: CC(C)NCC(O)COc1ccc(CC(N)=O)cc1 (stereo not shown) [atenolol, reference compound]

Reference: PMC10761696, “Avapritinib-based SAR studies unveil a binding pocket in KIT and PDGFRA” (Nature Communications, 2024)
